B1: S10AG_HUMAN (protein, UniProt Q96FQ6 1-103, looked up)
Protein S100-A16: MSDCYTELEKAVIVLVENFYKYVSKYSLVKNKISKSSFREMLQKELNHMLSDTGNRKAADKLIQNLDANHDGRISFDEYWTLIGGITGPIAKLIHEQEQQSSS
B2: TGM3_HUMAN (protein, UniProt Q08188 2-467; Q08188 468-693, looked up)
Protein-glutamine … 1: AALGVQSINWQTAFNRQAHHTDKFSSQELILRRGQNFQVLMIMNKGLGSNERLEFIVSTGPYPSESAMTKAVFPLSNGSSGGWSAVLQASNGNTLTISISSPASAPIGRYTMALQIFSQGGISSVKLGTFILLFNPWLNVDSVFMGNHAEREEYVQEDAGIIFVGSTNRIGMIGWNFGQFEEDILSICLSILDRSLNFRRDAATDVASRNDPKYVGRVLSAMINSNDDNGVLAGNWSGTYTGGRDPRSWNGSVEILKNWKKSGFSPVRYGQCWVFAGTLNTALRSLGIPSRVITNFNSAHDTDRNLSVDVYYDPMGNPLDKGSDSVWNFHVWNEGWFVRSDLGPSYGGWQVLDATPQERSQGVFQCGPASVIGVREGDVQLNFDMPFIFAEVNADRITWLYDNTTGKQWKNSVNSHTIGRYISTKAVGSNARMDVTDKYKYPEGSDQERQVFQKALGKLKPNTPFA
Protein-glutamine … 2: ATSSMGLETEEQEPSIIGKLKVAGMLAVGKEVNLVLLLKNLSRDTKTVTVNMTAWTIIYNGTLVHEVWKDSATMSLDPEEEAEHPIKISYAQYEKYLKSDNMIRITAVCKVPDESEVVVERDIILDNPTLTLEVLNEARVRKPVNVQMLFSNPLDEPVRDCVLMVEGSGLLLGNLKIDVPTLGPKEGSRVRFDILPSRSGTKQLLADFSCNKFPAIKAMLSIDVAE
B3: PSA3_HUMAN (protein, UniProt P25788 2-255, looked up)
Proteasome subunit alpha …: SSIGTGYDLSASTFSPDGRVFQVEYAMKAVENSSTAIGIRCKDGVVFGVEKLVLSKLYEEGSNKRLFNVDRHVGMAVAGLLADARSLADIAREEASNFRSNFGYNIPLKHLADRVAMYVHAYTLYSAVRPFGCSFMLGSYSVNDGAQLYMIDPSGVSYGYWGCAIGKARQAAKTEIEKLQMKEMTCRDIVKEVAKIIYIVHDEVKDKAFELELSWVGELTNGRHEIVPKDIREEAEKYAKESLKEEDESDDDNM
B4: GDIR2_HUMAN (protein, UniProt P52566 2-201, looked up)
Rho GDP-dissociation …: TEKAPEPHVEEDDDDELDSKLNYKPPPQKSLKELQEMDKDDESLIKYKKTLLGDGPVVTDPKAPNVVVTRLTLVCESAPGPITMDLTGDLEALKKETIVLKEGSEYRVKIHFKVNRDIVSGLKYVQHTYRTGVKVDKATFMVGSYGPRPEEYEFLTPVEEAPKGMLARGTYHNKSFFTDDDKQDHLSWEWNLSIKKEWTE
B5: SETLP_HUMAN (protein, UniProt P0DME0 1-292, looked up)
Protein SETSIP: MAPKRQSPLPLQKKKPRPPPALGLEETSASAGLPKKGEKEQQEAIEHIDEVQNEIDRLNEQDSEEILKVEQKYNKLRQPFFQKRSELIAKIPNFGVTTFVNHPQVSSLLGEEDEEALHYLTKVEVTEFEDIKSGYRIDFYFDENPYFENKVFSKEFHLNESGDPSSKSTKIKWKSGKDVTKRSSQTQNKASRKRQHEEPESFFTWFTDHSDAGADELEEVIKDDIWPNPLQYYLVPDMDDEEGGEDDDDDDDDGDEGEEELEDIDEGDEDEGEEDEDDDEGEEGEEDEGEDD
B6: GDIB_HUMAN (protein, UniProt P50395 1-445, looked up)
Rab GDP dissociation …: MNEEYDVIVLGTGLTECILSGIMSVNGKKVLHMDRNPYYGGESASITPLEDLYKRFKIPGSPPESMGRGRDWNVDLIPKFLMANGQLVKMLLYTEVTRYLDFKVTEGSFVYKGGKIYKVPSTEAEALASSLMGLFEKRRFRKFLVYVANFDEKDPRTFEGIDPKKTTMRDVYKKFDLGQDVIDFTGHALALYRTDDYLDQPCYETINRIKLYSESLARYGKSPYLYPLYGLGELPQGFARLSAIYGGTYMLNKPIEEIIVQNGKVIGVKSEGEIARCKQLICDPSYVKDRVEKVGQVIRVICILSHPIKNTNDANSCQIIIPQNQVNRKSDIYVCMISFAHNVAAQGKYIAIVSTTVETKEPEKEIRPALELLEPIEQKFVSISDLLVPKDLGTESQIFISRTYDATTHFETTCDDIKNIYKRMTGSEFDFEEMKRKKNDIYGED
B7: SPB13_HUMAN (protein, UniProt Q9UIV8 1-391, looked up)
Serpin B13: MDSLGAVSTRLGFDLFKELKKTNDGNIFFSPVGILTAIGMVLLGTRGATASQLEEVFHSEKETKSSRIKAEEKEVIENTEAVHQQFQKFLTEISKLTNDYELNITNRLFGEKTYLFLQKYLDYVEKYYHASLEPVDFVNAADESRKKINSWVESKTNEKIKDLFPDGSISSSTKLVLVNMVYFKGQWDREFKKENTKEEKFWMNKSTSKSVQMMTQSHSFSFTFLEDLQAKILGIPYKNNDLSMFVLLPNDIDGLEKIIDKISPEKLVEWTSPGHMEERKVNLHLPRFEVEDGYDLEAVLAAMGMGDAFSEHKADYSGMSSGSGLYAQKFLHSSFVAVTEEGTEAAAATGIGFTVTSAPGHENVHCNHPFLFFIRHNESNSILFFGRFSSP
B8: RINI_HUMAN (protein, UniProt P13489 2-461, looked up)
Ribonuclease inhibitor: SLDIQSLDIQCEELSDARWAELLPLLQQCQVVRLDDCGLTEARCKDISSALRVNPALAELNLRSNELGDVGVHCVLQGLQTPSCKIQKLSLQNCCLTGAGCGVLSSTLRTLPTLQELHLSDNLLGDAGLQLLCEGLLDPQCRLEKLQLEYCSLSAASCEPLASVLRAKPDFKELTVSNNDINEAGVRVLCQGLKDSPCQLEALKLESCGVTSDNCRDLCGIVASKASLRELALGSNKLGDVGMAELCPGLLHPSSRLRTLWIWECGITAKGCGDLCRVLRAKESLKELSLAGNELGDEGARLLCETLLEPGCQLESLWVKSCSFTAACCSHFSSVLAQNRFLLELQISNNRLEDAGVRELCQGLGQPGSVLRVLWLADCDVSDSSCSSLAATLLANHSLRELDLSNNCLGDAGILQLVESVRQPGCLLEQLVLYDIYWSEEMEDRLQALEKDKPSLRVIS
B9: PSB6_HUMAN (protein, UniProt P28072 35-239, looked up)
Proteasome subunit beta type-6: TTIMAVQFDGGVVLGADSRTTTGSYIANRVTDKLTPIHDRIFCCRSGSAADTQAVADAVTYQLGFHSIELNEPPLVHTAASLFKEMCYRYREDLMAGIIIAGWDPQEGGQVYSVPMGGMMVRQSFAIGGSGSSYIYGYVDATYREGMTKEECLQFTANALALAMERDGSSGGVIRLAAIAESGVERQVLLGDQIPKFAVATLPPA
B10: LMTK3_HUMAN (protein, UniProt Q96Q04 21-1460, looked up)
Serine/threonine-protein …: SPAHPDGFALGRAPLAPPYAVVLISCSGLLAFIFLLLTCLCCKRGDVGFKEFENPEGEDCSGEYTPPAEETSSSQSLPDVYILPLAEVSLPMPAPQPSHSDMTTPLGLSRQHLSYLQEIGSGWFGKVILGEIFSDYTPAQVVVKELRASAGPLEQRKFISEAQPYRSLQHPNVLQCLGLCVETLPFLLIMEFCQLGDLKRYLRAQRPPEGLSPELPPRDLRTLQRMGLEIARGLAHLHSHNYVHSDLALRNCLLTSDLTVRIGDYGLAHSNYKEDYYLTPERLWIPLRWAAPELLGELHGTFMVVDQSRESNIWSLGVTLWELFEFGAQPYRHLSDEEVLAFVVRQQHVKLARPRLKLPYADYWYDILQSCWRPPAQRPSASDLQLQLTYLLSERPPRPPPPPPPPRDGPFPWPWPPAHSAPRPGTLSSPFPLLDGFPGADPDDVLTVTESSRGLNLECLWEKARRGAGRGGGAPAWQPASAPPAPHANPSNPFYEALSTPSVLPVISARSPSVSSEYYIRLEEHGSPPEPLFPNDWDPLDPGVPAPQAPQAPSEVPQLVSETWASPLFPAPRPFPAQSSASGSFLLSGWDPEGRGAGETLAGDPAEVLGERGTAPWVEEEEEEEEGSSPGEDSSSLGGGPSRRGPLPCPLCSREGACSCLPLERGDAVAGWGGHPALGCPHPPEDDSSLRAERGSLADLPMAPPASAPPEFLDPLMGAAAPQYPGRGPPPAPPPPPPPPRAPADPAASPDPPSAVASPGSGLSSPGPKPGDSGYETETPFSPEGAFPGGGAAEEEGVPRPRAPPEPPDPGAPRPPPDPGPLPLPGPREKPTFVVQVSTEQLLMSLREDVTRNLLGEKGATARETGPRKAGRGPGNREKVPGLNRDPTVLGNGKQAPSLSLPVNGVTVLENGDQRAPGIEEKAAENGALGSPEREEKVLENGELTPPRREEKALENGELRSPEAGEKVLVNGGLTPPKSEDKVSENGGLRFPRNTERPPETGPWRAPGPWEKTPESWGPAPTIGEPAPETSLERAPAPSAVVSSRNGGETAPGPLGPAPKNGTLEPGTERRAPETGGAPRAPGAGRLDLGSGGRAPVGTGTAPGGGPGSGVDAKAGWVDNTRPQPPPPPLPPPPEAQPRRLEPAPPRARPEVAPEGEPGAPDSRAGGDTALSGDGDPPKPERKGPEMPRLFLDLGPPQGNSEQIKARLSRLSLALPPLTLTPFPGPGPRRPPWEGADAGAAGGEAGGAGAPGPAEEDGEDEDEDEEEDEEAAAPGAAAGPRGPGRARAAPVPVVVSSADADAARPLRGLLKSPRGADEPEDSELERKRKMVSFHGDVTVYLFDQETPTNELSVQAPPEGDTDPSTPPAPPTPPHPATPGDGFPSNDSGFGGSFEWAEDFPLLPPPGPPLCFSRFSVSPALETPGPPARAPDARPAGPVEN

Test system: peptides in gingival brush samples
Experiment: Protein and peptide profiling of gingival brush samples (LC-MS/MS), TABLE 23
Format: in vivo, human
Settings: for Mean CntlBsl (peptide abundance) / Mean CntlWk3 (peptide abundance) / Mean Cntl Bsl / Mean Cntl Wk3: control regimen; for Mean CntlBsl (peptide abundance) / Mean TrtBsl (peptide abundance) / Mean Cntl Bsl / Mean TrtBsl: baseline; for Mean CntlBsl (peptide abundance) / Mean CntlWk3 (peptide abundance) / Mean TrtBsl (peptide abundance) / Mean TrtWk3 (peptide abundance): pooled gingival brush samples, LC-MS/MS; for Mean CntlWk3 (peptide abundance) / Mean TrtWk3 (peptide abundance) / Mean Cntl Wk3 / Mean TrtWk3: week 3; for Mean TrtBsl (peptide abundance) / Mean TrtWk3 (peptide abundance) / Mean TrtBsl / Mean TrtWk3: treatment regimen; for Mean Cntl Bsl / Mean Cntl Wk3 / Mean TrtBsl / Mean TrtWk3: peptide abundance, gingival brush samples

Row | Molecule | Mean CntlBsl (peptide abundance) | Mean CntlWk3 (peptide abundance) | Mean TrtBsl (peptide abundance) | Mean TrtWk3 (peptide abundance) | Mean Cntl Bsl | Mean Cntl Wk3 | Mean TrtBsl | Mean TrtWk3
1 | B1 | 6388.6 | 10985.9 | 8702.5 | 15985.5 |  |  |  | 
2 | B2 | 31482.5 | 51193.2 | 40923.6 | 70843.9 |  |  |  | 
3 | B3 |  |  |  |  | 4680.6 | 4309.5 | 2591.7 | 4133.7
4 | B4 | 3520.1 | 2670.1 | 5082.8 | 2536.9 |  |  |  | 
5 | B5 | 722.3 | 1133.6 | 809.2 | 1620.6 |  |  |  | 
6 | B6 | 3885.3 | 5618.5 | 4080.5 | 5987.0 |  |  |  | 
7 | B7 | 671.5 | 1401.6 | 528.9 | 1816.3 |  |  |  | 
8 | B8 | 13042.9 | 15417.3 | 5705.2 | 13521.2 |  |  |  | 
9 | B9 |  |  |  |  | 4537.9 | 4417.4 | 4184.4 | 5054.8
10 | B10 | 37038.8 | 76294.9 | 58040.2 | 104244.7 |  |  |  | 
